Test results: PMC10465699, “Interaction patterns of methoprene-tolerant and germ cell-expressed Drosophila JH receptors suggest significant differences in their functioning” (Frontiers in Molecular Biosciences, 2023)
These are yes or no findings as the source states them, for the method shown. In cells and extracts the contact can be indirect. Binding calls can cover weak binding; strength is not graded here. Sequences can lack the tags named with a protein.

Molecular target: YFP-Gce-FLAG (full-length Gce, short isoform of 689 aa) (D. melanogaster)
Assay: co-IP; COS-7 cells co-transfected with a YFP-/FLAG-tagged protein and CFP-Ftz-F1 LBD; lysate on ANTI-FLAG M2 Affinity Gel, elution with FLAG peptide, Western blot with anti-GFP; no JH

B1: Fushi tarazu factor-1 ligand-binding domain (Ftz-F1 LBD, 786-1027 aa) (domain or fragment, D. melanogaster, UniProt P33244 786-1027, looked up)
chain: ALIEPLRVSPMIREFVQSIDDREWQTQLFALLQKQTYNQVEVDLFELMCKVLDQNLFSQVDWARNTVFFKDLKVDDQMKLLQHSWSDMLVLDHLHHRIHNGLPDETQLNNGQVFNLMSLGLLGVPQLGDYFNELQNKLQDLKFDMGDYVCMKFLILLNPSVRGIVNRKTVSEGHDNVQAALLDYTLTCYPSVNDKFRGLVNILPEIHAMAVRGEDHLYTKHCAGSAPTQTLLMEMLHAKRKG
notes: 15N- or 13C,15N-labelled where it was the observed protein in NMR, unlabelled otherwise; also called LBD Ftz-F1; source: E. coli BL21(DE3), purified (Ni-NTA, thrombin digestion, SEC); not shown: His6, N-terminal, cleaved
binding: binds
